According to paper doi:10.64898/2025.12.05.692564:
Results are given in words; binding and its absence hold for the method and conditions named. In cells and extracts the contact can be indirect. These calls come from enrichment with a bait or labelling near it, and not all partners need be listed.

Sequences of proteins named here, by UniProt entry; tags and fusion partners are left off.
UniProt Q6P9Z1: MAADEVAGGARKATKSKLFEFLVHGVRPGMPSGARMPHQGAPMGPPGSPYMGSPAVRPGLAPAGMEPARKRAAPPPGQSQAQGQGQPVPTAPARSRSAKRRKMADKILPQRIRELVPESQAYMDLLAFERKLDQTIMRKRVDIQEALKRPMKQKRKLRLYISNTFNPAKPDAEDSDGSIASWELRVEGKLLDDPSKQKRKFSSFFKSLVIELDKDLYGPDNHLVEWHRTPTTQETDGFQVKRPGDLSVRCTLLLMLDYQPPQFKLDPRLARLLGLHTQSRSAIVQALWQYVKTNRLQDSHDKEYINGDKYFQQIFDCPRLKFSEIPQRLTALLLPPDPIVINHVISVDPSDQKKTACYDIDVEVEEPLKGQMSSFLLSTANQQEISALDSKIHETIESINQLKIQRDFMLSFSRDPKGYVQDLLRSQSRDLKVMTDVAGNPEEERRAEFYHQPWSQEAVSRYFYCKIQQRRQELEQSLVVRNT
UniProt Q61466: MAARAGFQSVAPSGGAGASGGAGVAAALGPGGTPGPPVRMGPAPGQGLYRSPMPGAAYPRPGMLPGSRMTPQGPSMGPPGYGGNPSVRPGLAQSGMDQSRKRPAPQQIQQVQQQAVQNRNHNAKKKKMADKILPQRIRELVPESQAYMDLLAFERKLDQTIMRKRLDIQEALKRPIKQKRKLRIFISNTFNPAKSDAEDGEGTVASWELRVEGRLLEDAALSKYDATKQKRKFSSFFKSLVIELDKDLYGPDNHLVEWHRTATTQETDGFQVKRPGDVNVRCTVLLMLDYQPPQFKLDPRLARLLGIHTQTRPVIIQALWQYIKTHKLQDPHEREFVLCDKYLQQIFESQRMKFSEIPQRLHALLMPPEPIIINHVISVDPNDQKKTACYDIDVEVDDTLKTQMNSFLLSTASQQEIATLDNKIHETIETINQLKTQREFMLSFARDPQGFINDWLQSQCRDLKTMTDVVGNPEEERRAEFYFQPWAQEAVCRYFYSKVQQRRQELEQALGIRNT
UniProt Q91ZW3: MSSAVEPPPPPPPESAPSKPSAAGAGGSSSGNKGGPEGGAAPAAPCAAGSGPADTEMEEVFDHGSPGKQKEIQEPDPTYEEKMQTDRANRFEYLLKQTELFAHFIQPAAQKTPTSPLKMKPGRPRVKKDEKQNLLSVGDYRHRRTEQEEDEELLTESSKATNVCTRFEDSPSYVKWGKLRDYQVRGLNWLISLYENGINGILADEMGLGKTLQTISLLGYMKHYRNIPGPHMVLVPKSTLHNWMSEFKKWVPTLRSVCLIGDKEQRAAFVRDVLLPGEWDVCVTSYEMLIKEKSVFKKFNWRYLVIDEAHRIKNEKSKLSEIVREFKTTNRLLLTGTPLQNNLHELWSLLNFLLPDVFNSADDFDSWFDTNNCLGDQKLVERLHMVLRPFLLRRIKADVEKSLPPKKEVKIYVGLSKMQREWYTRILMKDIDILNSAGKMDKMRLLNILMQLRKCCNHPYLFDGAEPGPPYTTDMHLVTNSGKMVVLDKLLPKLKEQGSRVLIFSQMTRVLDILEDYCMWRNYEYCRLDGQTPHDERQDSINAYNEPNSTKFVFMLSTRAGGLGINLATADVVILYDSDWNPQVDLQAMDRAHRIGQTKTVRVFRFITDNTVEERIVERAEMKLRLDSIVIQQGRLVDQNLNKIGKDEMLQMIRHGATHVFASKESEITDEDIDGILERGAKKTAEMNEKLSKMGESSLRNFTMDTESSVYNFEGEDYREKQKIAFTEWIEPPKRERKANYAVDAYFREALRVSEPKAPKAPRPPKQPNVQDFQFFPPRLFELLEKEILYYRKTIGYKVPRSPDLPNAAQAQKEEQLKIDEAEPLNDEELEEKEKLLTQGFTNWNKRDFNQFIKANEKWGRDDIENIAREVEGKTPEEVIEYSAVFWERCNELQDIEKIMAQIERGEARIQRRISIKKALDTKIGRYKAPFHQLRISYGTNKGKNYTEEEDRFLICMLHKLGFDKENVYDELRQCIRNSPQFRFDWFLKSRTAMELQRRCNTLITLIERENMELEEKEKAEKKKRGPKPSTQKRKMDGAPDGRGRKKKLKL
UniProt Q8VDW0: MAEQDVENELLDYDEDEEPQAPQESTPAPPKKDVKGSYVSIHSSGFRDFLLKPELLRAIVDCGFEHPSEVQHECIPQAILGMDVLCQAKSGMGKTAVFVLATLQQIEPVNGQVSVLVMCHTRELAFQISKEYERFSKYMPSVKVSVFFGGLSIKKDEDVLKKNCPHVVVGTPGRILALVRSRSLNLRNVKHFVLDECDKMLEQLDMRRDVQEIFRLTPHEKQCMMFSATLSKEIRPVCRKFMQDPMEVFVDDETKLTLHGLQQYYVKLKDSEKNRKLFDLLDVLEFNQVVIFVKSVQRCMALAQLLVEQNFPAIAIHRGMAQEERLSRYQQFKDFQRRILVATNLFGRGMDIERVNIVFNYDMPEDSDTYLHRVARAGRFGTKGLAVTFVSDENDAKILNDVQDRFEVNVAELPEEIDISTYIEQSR
UniProt Q3UH60: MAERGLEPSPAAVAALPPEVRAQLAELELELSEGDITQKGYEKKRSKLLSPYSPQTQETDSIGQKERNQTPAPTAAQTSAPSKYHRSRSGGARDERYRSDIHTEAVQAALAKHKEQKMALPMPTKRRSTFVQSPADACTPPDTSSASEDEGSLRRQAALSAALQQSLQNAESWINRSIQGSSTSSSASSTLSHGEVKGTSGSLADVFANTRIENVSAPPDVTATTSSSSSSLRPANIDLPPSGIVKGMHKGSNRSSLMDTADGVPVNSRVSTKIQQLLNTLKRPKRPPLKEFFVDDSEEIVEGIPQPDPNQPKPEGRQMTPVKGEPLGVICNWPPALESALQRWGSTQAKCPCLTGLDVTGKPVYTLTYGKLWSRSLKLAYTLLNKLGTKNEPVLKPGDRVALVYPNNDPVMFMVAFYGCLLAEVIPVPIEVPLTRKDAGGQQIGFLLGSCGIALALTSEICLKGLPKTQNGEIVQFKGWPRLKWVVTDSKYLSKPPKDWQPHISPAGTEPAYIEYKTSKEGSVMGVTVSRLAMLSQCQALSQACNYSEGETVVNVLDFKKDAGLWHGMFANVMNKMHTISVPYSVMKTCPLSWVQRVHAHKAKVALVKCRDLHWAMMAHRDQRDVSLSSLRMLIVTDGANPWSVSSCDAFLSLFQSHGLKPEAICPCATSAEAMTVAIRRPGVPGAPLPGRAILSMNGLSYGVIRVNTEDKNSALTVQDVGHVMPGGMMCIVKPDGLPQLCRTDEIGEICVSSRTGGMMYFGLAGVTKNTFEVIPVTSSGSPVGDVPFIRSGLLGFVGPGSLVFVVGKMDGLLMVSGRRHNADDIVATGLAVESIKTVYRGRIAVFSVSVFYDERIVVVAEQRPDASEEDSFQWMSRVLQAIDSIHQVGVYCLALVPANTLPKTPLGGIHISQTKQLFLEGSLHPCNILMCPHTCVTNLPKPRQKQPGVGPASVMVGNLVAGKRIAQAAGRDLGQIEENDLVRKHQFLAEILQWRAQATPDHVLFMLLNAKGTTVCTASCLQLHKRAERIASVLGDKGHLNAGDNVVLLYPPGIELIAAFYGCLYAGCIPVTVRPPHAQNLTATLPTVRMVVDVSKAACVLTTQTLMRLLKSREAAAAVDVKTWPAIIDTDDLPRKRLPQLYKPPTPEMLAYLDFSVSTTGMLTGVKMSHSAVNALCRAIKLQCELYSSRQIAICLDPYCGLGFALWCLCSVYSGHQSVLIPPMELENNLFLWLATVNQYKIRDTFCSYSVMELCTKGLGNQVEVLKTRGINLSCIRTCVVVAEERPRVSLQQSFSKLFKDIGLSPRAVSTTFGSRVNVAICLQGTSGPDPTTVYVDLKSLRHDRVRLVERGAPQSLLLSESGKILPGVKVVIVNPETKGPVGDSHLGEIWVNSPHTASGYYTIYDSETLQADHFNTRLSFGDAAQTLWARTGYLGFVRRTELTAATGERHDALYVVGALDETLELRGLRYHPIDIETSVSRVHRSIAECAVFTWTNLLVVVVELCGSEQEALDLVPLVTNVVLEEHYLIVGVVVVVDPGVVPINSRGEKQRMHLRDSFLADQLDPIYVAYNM

Tests used:
SMARCD3-FKBPv-V5 (mouse) = SMARCD3-FKBPv-V5 (mouse) (UniProt Q6P9Z1); assay: affinity purification with mass spectrometry
SMARCD1-FKBPv-V5 (mouse) = SMARCD1-FKBPv-V5 (mouse) (UniProt Q61466); assay: affinity purification with mass spectrometry

SMARCA5 (from UniProt Q91ZW3 1-1051)
binding (SMARCD3-FKBPv-V5 (mouse)): binds | binding (SMARCD1-FKBPv-V5 (mouse)): binds

DDX39A (from UniProt Q8VDW0 1-427)
binding (SMARCD3-FKBPv-V5 (mouse)): binds | binding (SMARCD1-FKBPv-V5 (mouse)): binds

DIP2B (from UniProt Q3UH60 1-1574)
binding (SMARCD1-FKBPv-V5 (mouse)): binds
